PubChem BioAssay AID686943 – Drosophila RNAi Screening Center | 2013

Assay: 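Search across the genome for regulators of signalling from receptor tyrosine kinase to ERK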 (primary screen)
Cell system: Drosophila S2R+ haemocyte-like cells expressing YFP-tagged ERK (Rolled)
Reagents: long dsRNA against Drosophila genes
Treatment: insulin stimulation versus unstimulated cells; dose and duration not given
Measurement: 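Antibody staining for doubly phosphorylated ERK divided by ERK-YFP signal, as plate z-scores, in insulin-treated and untreated cells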
Scale: replicate 1, z-score of dpERK with insulin: higher = more active ERK per ERK-YFP after insulin
In all, the deposit lists about 23,000 reagents; below is an unselected part of those with a known target gene and a result. 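Extra replicates exist only for a retested subset of genes; insulin dose and duration not given; both raised and lowered dpERK matter.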 A plus sign joins genes that one reagent is predicted to hit. Further read-outs or replicates are left out here. The record does not give: the amount of reagent, the time to read-out.

| predicted target | dsRNA | replicate 1, z-score of dpERK with insulin |
| --- | --- | --- |
| CG18095 (GeneID 34823) | DRSC01948 | -0.34 |
| CG15772 (GeneID 31498) | DRSC18078 | -0.82 |
| mRpL15 (GeneID 40261) | DRSC11771 | 0.21 |
| CG16984 (GeneID 38322) | DRSC08500 | 0.26 |
| a5 (GeneID 33317) | DRSC00798 | -0.57 |
| PGAP1 (GeneID 31487) | DRSC18286 | -0.45 |
| CG33981 + fab1 | DRSC07412 | 1.09 |
| nolo (GeneID 35424) | DRSC03705 | 0.82 |
| nolo (GeneID 35424) | DRSC03719 | -0.01 |
| nolo (GeneID 35424) | DRSC03720 | 0.15 |
| CG7202 (GeneID 40376) | DRSC11818 | 0.76 |
| CG12594 (GeneID 41416) | DRSC14532 | 1.18 |
| CG12310 (GeneID 39634) | DRSC09878 | -0.35 |
| CG12963 (GeneID 36724) | DRSC05555 | 1.1 |
| CG12963 (GeneID 36724) | DRSC06265 | 0.69 |
| CG42245 + MEP-1 | DRSC07993 | -0.65 |
| CG42245 + MEP-1 | DRSC08274 | 1.39 |
| CG42245 + MEP-1 | DRSC21460 | -2.03 |
| Prps (GeneID 39132) | DRSC08994 | -0.15 |
| Prps (GeneID 39132) | DRSC10707 | -0.35 |
| Prps (GeneID 39132) | DRSC10708 | 0.07 |
| CG5790 (GeneID 35095) | DRSC02896 | -0.35 |
| CG14346 (GeneID 33325) | DRSC00376 | 0.57 |
| CG18558 (GeneID 33482) | DRSC00525 | -1.5 |
| CG18558 (GeneID 33482) | DRSC21593 | 0.58 |
| snf (GeneID 31442) | DRSC18835 | 0.81 |
| CG18258 (GeneID 32708) | DRSC19798 | -0.98 |
| CG4404 (GeneID 32241) | DRSC19897 | 0.07 |
| dib (GeneID 45282) | DRSC08711 | 0.05 |
| bora (GeneID 40031) | DRSC10744 | 0.72 |
| Top3beta (GeneID 31565) | DRSC18724 | 0.34 |
| Slu7 (GeneID 43427) | DRSC14729 | 1.88 |
| CG42284 (GeneID 37621) | DRSC22094 | 0.57 |
| CG42284 (GeneID 37621) | DRSC22342 | -0.49 |
| Shark (GeneID 44353) | DRSC07680 | 0.47 |
| Sid (GeneID 43390) | DRSC16588 | -0.59 |

Records listed so far whose target name begins with S or s:
| predicted target | dsRNA | replicate 1, z-score of dpERK with insulin |
| --- | --- | --- |
| snf (GeneID 31442) | DRSC18835 | 0.81 |
| Slu7 (GeneID 43427) | DRSC14729 | 1.88 |
| Shark (GeneID 44353) | DRSC07680 | 0.47 |
| Sid (GeneID 43390) | DRSC16588 | -0.59 |

More entries follow:
| predicted target | dsRNA | replicate 1, z-score of dpERK with insulin |
| --- | --- | --- |
| GstD8 (GeneID 48341) | DRSC16689 | -0.02 |
| CR40441 (GeneID 10178882) | DRSC22916 | -0.36 |
| obst-F (GeneID 40209) | DRSC10805 | -0.23 |
| CG5715 (GeneID 42895) | DRSC15860 | -0.23 |
| CG12784 (GeneID 41903) | DRSC14539 | -0.57 |
| shf (GeneID 31617) | DRSC18283 | 0.56 |
| fit (GeneID 42578) | DRSC15280 | 0.4 |
| ro (GeneID 43234) | DRSC17046 | -1.1 |
| CG42650 (GeneID 10178825) | DRSC12462 | -0.51 |
| Mrgn1 (GeneID 32330) | DRSC20223 | -0.99 |
| galla-1 (GeneID 246485) | DRSC05987 | -0.44 |
| CG31102 (GeneID 326118) | DRSC14260 | 12.9 |
| GLaz (GeneID 36447) | DRSC07431 | -1.03 |
| CG32700 (GeneID 31896) | DRSC17857 | 1.02 |
| CG32700 (GeneID 31896) | DRSC17858 | 0.58 |
| Vps13B (GeneID 43550) | DRSC15060 | 0.98 |
| CG32212 + hpRNA:CR33940 | DRSC09618 | -0.65 |
| Blos2 (GeneID 39234) | DRSC10147 | 0.58 |
| Tsp42En (GeneID 35624) | DRSC06185 | 0.95 |
| CG13285 (GeneID 38623) | DRSC09960 | 0.56 |
| CG42500 (GeneID 50032) | DRSC14822 | 1.2 |
